The values below come from article PMC12499447.

Chains of the proteins cited; added tags and fusions are not shown.
UniProt P49336: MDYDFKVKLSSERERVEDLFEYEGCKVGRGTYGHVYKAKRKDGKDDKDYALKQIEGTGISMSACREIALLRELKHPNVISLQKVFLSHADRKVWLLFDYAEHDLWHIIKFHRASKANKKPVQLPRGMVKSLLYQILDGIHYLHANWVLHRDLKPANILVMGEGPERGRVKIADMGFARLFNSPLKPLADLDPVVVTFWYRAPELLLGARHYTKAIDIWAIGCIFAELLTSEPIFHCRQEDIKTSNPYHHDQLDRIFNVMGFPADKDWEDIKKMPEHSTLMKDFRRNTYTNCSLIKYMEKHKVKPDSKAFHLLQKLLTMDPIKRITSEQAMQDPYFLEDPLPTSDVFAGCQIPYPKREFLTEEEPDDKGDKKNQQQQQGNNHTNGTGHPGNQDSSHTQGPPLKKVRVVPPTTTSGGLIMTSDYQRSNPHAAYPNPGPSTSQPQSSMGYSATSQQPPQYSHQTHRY
UniProt P49759: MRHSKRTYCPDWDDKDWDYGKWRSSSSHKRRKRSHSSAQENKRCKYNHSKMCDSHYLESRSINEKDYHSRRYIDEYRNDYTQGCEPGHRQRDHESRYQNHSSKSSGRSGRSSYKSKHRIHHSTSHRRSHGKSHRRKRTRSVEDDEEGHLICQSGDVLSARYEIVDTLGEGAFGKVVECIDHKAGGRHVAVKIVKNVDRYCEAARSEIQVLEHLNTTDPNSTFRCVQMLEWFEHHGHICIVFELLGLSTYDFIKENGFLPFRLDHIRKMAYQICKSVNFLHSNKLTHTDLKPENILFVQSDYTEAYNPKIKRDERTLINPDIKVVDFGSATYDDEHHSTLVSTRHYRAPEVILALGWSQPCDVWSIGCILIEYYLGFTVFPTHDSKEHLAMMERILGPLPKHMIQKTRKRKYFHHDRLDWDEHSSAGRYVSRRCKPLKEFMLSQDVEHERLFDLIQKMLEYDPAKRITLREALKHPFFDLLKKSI
UniProt P68400: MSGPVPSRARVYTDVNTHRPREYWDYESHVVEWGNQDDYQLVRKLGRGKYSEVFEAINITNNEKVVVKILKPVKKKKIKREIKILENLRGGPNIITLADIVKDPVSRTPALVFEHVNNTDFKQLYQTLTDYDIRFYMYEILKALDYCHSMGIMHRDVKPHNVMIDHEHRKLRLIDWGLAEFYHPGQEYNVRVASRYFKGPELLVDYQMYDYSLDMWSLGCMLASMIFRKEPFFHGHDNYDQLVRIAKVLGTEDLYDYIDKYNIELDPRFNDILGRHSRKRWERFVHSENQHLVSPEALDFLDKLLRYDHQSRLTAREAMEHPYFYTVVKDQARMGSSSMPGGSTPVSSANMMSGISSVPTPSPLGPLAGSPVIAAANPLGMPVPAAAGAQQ
UniProt Q9P0L2: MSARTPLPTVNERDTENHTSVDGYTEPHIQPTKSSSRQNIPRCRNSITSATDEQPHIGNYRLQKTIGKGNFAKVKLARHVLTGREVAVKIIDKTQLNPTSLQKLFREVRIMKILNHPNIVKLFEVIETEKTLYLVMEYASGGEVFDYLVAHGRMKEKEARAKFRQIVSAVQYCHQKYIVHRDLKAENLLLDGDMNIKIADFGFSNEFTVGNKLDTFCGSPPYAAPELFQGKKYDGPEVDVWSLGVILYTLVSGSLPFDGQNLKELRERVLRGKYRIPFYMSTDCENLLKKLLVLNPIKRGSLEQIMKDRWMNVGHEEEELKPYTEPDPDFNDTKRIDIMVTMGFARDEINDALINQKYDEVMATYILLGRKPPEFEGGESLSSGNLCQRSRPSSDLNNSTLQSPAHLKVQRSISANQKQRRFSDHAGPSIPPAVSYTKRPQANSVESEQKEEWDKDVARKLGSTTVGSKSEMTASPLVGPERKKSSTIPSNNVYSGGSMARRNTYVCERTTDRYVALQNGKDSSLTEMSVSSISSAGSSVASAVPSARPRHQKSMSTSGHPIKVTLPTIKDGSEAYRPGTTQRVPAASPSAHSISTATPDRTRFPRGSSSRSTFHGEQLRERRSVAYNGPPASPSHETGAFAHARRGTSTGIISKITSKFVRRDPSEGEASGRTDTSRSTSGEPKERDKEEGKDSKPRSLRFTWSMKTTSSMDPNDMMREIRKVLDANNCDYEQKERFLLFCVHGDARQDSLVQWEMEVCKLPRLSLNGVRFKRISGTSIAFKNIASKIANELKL
UniProt Q96SB4: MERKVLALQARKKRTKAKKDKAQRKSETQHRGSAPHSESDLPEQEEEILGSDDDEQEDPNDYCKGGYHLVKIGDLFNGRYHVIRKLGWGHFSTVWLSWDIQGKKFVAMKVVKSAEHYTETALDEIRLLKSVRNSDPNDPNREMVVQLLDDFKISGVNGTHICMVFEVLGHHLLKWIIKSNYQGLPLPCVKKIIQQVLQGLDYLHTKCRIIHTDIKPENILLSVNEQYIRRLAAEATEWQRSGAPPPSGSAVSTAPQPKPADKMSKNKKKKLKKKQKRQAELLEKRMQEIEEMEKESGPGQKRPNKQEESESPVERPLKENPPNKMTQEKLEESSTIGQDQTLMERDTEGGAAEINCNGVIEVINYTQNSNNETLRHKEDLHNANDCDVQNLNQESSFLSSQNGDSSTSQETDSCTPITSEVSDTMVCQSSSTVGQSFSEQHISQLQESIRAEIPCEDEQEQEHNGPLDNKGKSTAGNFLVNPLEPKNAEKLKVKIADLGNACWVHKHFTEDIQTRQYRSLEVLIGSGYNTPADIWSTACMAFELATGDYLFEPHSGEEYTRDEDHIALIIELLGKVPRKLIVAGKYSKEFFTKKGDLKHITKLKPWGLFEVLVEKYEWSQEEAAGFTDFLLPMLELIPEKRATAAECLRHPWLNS

No constants are given. Whether binding was seen depends on the method and setting. In cells and extracts the contact can be indirect. Some results given as binding are weak or reduced against the parent protein; the word gives no strength. For part of these data: Where a sequence is shown, tags or fusion partners need not be part of it.

For test [1], the target named is T1, API5^WT, exogenous (tag not told for these experiments) (human) (UniProt Q9BZZ5).
T1 sequence: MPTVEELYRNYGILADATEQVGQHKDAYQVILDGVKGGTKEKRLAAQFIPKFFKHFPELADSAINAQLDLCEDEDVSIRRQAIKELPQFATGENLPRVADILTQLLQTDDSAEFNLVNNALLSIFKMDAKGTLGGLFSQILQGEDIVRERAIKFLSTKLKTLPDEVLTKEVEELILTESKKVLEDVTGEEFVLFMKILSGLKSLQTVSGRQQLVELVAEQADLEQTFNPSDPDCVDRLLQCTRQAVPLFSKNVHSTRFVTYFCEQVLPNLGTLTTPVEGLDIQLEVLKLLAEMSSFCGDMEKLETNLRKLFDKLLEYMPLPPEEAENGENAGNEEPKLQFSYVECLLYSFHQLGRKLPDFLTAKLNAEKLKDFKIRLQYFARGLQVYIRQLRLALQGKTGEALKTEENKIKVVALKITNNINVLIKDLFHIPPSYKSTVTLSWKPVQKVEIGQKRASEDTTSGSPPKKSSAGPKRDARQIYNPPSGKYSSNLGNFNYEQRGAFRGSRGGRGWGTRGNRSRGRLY
The experiment in a line: co-IP; candidate kinases predicted by GPS 6.0 screened against API5 (Figures S7 and S8B); constructs and cells not shown.

Test [2] addresses T2, Apoptosis inhibitor 5 (API5), endogenous (human (endogenous in A549 and HEK293T)) (UniProt Q9BZZ5).
T2 sequence: T1 sequence
The experiment in a line: co-IP.

“CDK8 (candidate kinase in the co-IP screen) (from UniProt P49336 1-464) (enzyme)”: the binding entry in test [1] is on record as “binds”. Still for that read-out and setting: in the case of “CLK1 (candidate kinase in the co-IP screen) (from UniProt P49759 1-484) (enzyme)” it was “binds”; in that of “CSNK2A1 (candidate kinase in the co-IP screen) (from UniProt P68400 1-391) (enzyme)”, “binds”; in that of “MARK1 (candidate kinase in the co-IP screen) (from UniProt Q9P0L2 1-795) (enzyme)”, “binds”. Consider “SRPK1 (candidate kinase in the co-IP screen) (from UniProt Q96SB4 1-655) (enzyme)”, for which the binding entry in test [1] is recorded as “binds”. With “Serine/arginine-rich protein kinase 1 (SRPK1), endogenous (from UniProt Q96SB4 1-655) (enzyme)”, the binding entry in test [2] was “binds”.
